According to US20230357389A1:
Results are given in words; binding and its absence hold for the method and conditions named. Some results given as binding are weak or reduced against the parent protein; the word gives no strength.

The chains behind the UniProt entries cited, without tags or fusion partners. Where a name states a change or a piece, a line headed by the entry shows the natural chain unless it says otherwise.
UniProt P07766: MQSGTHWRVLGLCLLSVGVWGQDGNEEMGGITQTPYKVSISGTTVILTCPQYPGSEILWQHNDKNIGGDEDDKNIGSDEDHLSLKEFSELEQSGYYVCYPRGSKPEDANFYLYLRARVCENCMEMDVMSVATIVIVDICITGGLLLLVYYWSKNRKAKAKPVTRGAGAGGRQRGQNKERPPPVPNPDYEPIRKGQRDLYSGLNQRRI
UniProt P04234: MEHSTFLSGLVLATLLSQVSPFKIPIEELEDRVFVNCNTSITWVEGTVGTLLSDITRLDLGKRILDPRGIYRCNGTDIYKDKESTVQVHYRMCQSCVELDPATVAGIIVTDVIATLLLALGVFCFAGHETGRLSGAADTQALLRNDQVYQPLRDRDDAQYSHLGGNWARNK
UniProt P09693: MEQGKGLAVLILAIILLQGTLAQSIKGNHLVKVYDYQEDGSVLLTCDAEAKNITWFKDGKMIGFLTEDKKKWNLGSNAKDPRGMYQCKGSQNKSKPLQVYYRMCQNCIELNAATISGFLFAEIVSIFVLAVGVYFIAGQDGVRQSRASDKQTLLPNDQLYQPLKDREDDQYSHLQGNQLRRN
UniProt P20963: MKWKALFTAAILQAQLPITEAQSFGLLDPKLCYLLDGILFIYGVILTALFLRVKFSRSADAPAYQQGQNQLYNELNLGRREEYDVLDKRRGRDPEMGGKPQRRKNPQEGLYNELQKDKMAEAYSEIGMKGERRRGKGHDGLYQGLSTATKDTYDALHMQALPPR

B1: anti-CD3 monoclonal antibody HzSP34.24 (antibody, human IgG1, lambda, L234A L235A, V domains shown)
VH: EVQLVESGGGLVQPGGSLKLSCAASGFTFNTYAMNWVRQASGKGLEWVGRIRSKYNNYATYYADSVKDRFTISRDDSKSTLYLQMNSLKTEDTAVYYCARHGNFGQSYVSWFAYWGQGTTVTVSS
VL: QAVVTQEPSLTVSPGGTVTLTCRSSTGAVTTSNYANWVQQKPGQAPRGLIGGTNKRAPGVPARFSGSLLGDKAALTLLGAQPEDEAEYYCALWYSNLWVFGQGTKLTVLG
B2: anti-CD3 monoclonal antibody HzSP34.87 (antibody, human IgG1, lambda, L234A L235A, V domains shown)
VH: EVQLVESGGGLVQPGGSLKLSCAASGFTFNTYAMNWVRQASGKGLEWVGRIRSKYNNYATYYADSVKDRFTISRDDSKSTLYLQMNSLKTEDTAVYYCARHYNFGQSYVSWFAYWGQGTTVTVSS
VL: QAVVTQEPSLTVSPGGTVTLTCRSSTGAVTTSNYANWVQQKPGQAPRGLIGGTNKRAPGVPARFSGSLLGDKAALTLLGAQPEDEAEYYCALWYSNLWVFGQGTKLTVLG
B3: anti-CD3 monoclonal antibody HzSP34.97 (antibody, human IgG1, lambda, L234A L235A, V domains shown)
VH: EVQLVESGGGLVQPGGSLKLSCAASGFTFNTYAMNWVRQASGKGLEWVGRIRSKAGGYATYYADSVKDRFTISRDDSKSTLYLQMNSLKTEDTAVYYCARHGNFGQSYVSWFAYWGQGTTVTVSS
VL: QAVVTQEPSLTVSPGGTVTLTCRSSTGAVTTSNYANWVQQKPGQAPRGLIGGTNKRAPGVPARFSGSLLGDKAALTLLGAQPEDEAEYYCALWYSNLWVFGQGTKLTVLG

Target: human CD3 complex on T cells (human) (UniProt P07766+P04234+P09693+P20963)
Assay: flow cytometry on Jurkat cells

binding, binds:
B1
B2
B3
